Reference: article PMC3116320 (Indian Journal of Pharmaceutical Sciences, 2010)

Assays:
[1] = system: MCF7 breast cancer cell line; experiment: Sulforhodamine-B; assay type: cell-based; conditions: Homo sapiens, MCF7, read-out: IC50 anticancer evaluation MCF
[2] = system: HOP62 lung cancer cell line; experiment: Sulforhodamine-B; assay type: cell-based; conditions: Homo sapiens, HOP-62, read-out: IC50 anticancer evaluation Hop62
[3] = system: Colo205 colon cancer cell line; experiment: Sulforhodamine-B; assay type: cell-based; conditions: Homo sapiens, COLO 205, read-out: IC50 anticancer evaluation Colo205
[4] = system: HT29 colon cancer cell line; experiment: Sulforhodamine-B; assay type: cell-based; conditions: Homo sapiens, HT-29, read-out: IC50 anticancer evaluation HT29
[5] = system: MIA-PA-CA-2 pancreatic cancer cell line; experiment: Sulforhodamine-B; assay type: cell-based; conditions: Homo sapiens, MIA PaCa-2, read-out: IC50 anticancer evaluation Miapaca-2
[6] = target: farnesyl protein transferase (FPT) (Homo sapiens, UniProt P49354+P49356); experiment: FPT inhibition assay; assay type: biochemical

IC50 [1]: 25 µM | IC50 [2]: 50 µM | IC50 [3]: 85 µM | IC50 [4]: 20 µM | IC50 [5]: 25 µM | IC50 [6]: 60 µM
Structure (SMILES): Clc1ccc2c(c1)CCc1cccnc1C2=C1CCNCC1 [Desloratidine, Desloratadine]
